Assay results published in PubChem BioAssay AID588590 (National Center for Advancing Translational Sciences (NCATS), 2011).
About 4,000 (1%) of roughly 390,000 compounds were called active. Inconclusive means that the source gave no clear call. Such entries were picked first, then a sample of the others. The call rests on the fitted dose curve; in most records, active means well fitted inhibition curve with a large enough effect; inconclusive means small, poorly fitted or top-dose-only effect, or another doubt; inactive means no such curve, though single readings can be large or run the other way. Potencies of inconclusive entries are doubtful fits and often do not repeat.

Amino acid sequences for entries named in this document (tags omitted). A change or cut given only in a name is not applied to a line headed by its entry.
UniProt Q9UNA4: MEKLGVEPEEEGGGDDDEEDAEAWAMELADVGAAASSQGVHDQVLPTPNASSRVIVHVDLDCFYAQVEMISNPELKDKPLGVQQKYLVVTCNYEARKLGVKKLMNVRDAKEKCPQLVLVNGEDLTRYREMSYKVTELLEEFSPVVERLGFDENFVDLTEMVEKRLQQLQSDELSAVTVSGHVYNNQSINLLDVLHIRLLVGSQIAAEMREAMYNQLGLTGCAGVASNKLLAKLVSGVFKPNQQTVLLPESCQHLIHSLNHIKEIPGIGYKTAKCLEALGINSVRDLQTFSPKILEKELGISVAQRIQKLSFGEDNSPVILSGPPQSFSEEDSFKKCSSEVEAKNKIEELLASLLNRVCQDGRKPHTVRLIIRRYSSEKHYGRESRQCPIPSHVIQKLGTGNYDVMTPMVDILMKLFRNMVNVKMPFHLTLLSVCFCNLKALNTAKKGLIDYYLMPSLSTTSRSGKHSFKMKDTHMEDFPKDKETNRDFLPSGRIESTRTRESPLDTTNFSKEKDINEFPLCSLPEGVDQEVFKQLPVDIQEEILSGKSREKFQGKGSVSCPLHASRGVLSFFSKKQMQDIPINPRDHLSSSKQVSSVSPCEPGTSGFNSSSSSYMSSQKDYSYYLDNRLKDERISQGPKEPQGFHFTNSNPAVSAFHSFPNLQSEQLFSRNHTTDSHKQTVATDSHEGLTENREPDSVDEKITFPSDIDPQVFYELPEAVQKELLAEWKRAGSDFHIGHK

These compounds were tested against DNA polymerase iota (Homo sapiens) (UniProt Q9UNA4) (assay: qHTS for Inhibitors of Polymerase Iota). Details: Pol iota fluorescent replication assay, 10 min; series mostly up to 115 µM; activity, negative = inhibition: at the top concentration.
In short: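 Fluorescent replication assay read twice, at 0 min and 10 min after adding 50 nM (final) substrate. Enzyme (10 nM) and compounds were first incubated 15 min at room temperature; enzyme-free buffer wells were negative controls.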
Potency means the concentration at half of the fitted maximal effect.

| Compound | Potency | activity, negative = inhibition |
| --- | --- | --- |
| Cc1cc(C)nc(NNC(=O)c2ccccc2O)n1 | inconclusive: 39.8 µM [inhibitor, single point] | – |
| Cc1cc(-c2ccccc2)nc(N/N=C/c2ccc(O)cc2)n1 | – | inactive: 19.2% |
| Cc1ccc(-c2cc3c(N4CCN(c5cc(C)ccc5C)CC4)nccn3n2)cc1 | – | inactive: -3.82% |
| COc1ccc2c(c1)[nH]c1c(=O)n(Cc3ccco3)cnc12 | inconclusive: 28.2 µM [inhibitor, single point] | – |
| Cc1ccc(S(=O)(=O)Cc2ccc(C(=O)NCc3ccc4c(c3)OCO4)o2)cc1 | inconclusive: 14.1 µM [inhibitor, full curve] | – |
| CC(=O)c1cccc(S(=O)(=O)NC(C)C2CC3CCC2C3)c1 (configuration not stated) | inconclusive: 15.8 µM [inhibitor, full curve, poor fit] | – |
| CCOC(=O)C1=C(C)N=c2s/c(=C\c3ccc(OCC(=O)O)cc3)c(=O)n2C1c1ccc(OC(C)C)cc1 (configuration not stated) | inconclusive: 44.7 µM [inhibitor, partial curve, poor fit] | – |
| CNS(=O)(=O)c1cc(-c2nnc(Nc3cc(C)ccc3C)c3ccccc23)ccc1C | inconclusive: 100 µM [inhibitor, partial curve, poor fit] | – |
| Cc1ccccc1-c1cc(C(=O)NCc2ccc3c(c2)OCO3)n(CC2CC(c3cccnc3)=NO2)n1 (configuration not stated) | inconclusive: 11.2 µM [inhibitor, single point] | – |
| CC(Oc1ccccc1)C(=O)N=Nc1c(O)[nH]c2ccc([N+](=O)[O-])cc12 (configuration not stated) | active: 79.4 µM | – |
| Cc1cccc(NC(=O)CNC(=O)CSc2ncccn2)c1C | – | inactive: 17.8% |
| COc1ccc(NC(=O)C(=O)Nc2cccc3cccnc23)cc1OC | inconclusive: 7.94 µM [inhibitor, full curve, poor fit] | – |
| CCOC(=O)c1ccc(NC(=O)C2C3CCC(C3)C2C(=O)O)cc1 (configuration not stated) | inconclusive: 39.8 µM [inhibitor, partial curve, poor fit] | – |
| Nc1ccc(S(=O)(=O)N2CCCC2C(=O)O)cc1 (configuration not stated) | inconclusive: 15.8 µM [inhibitor, partial curve, poor fit] | – |
| COc1ccc(OC)c(C2C(C#N)=C(N)Oc3c2c(C)nn3-c2cccc(Cl)c2)c1 (configuration not stated) | inconclusive: 2.24 µM [inhibitor, full curve, poor fit] | – |
| CCCCn1c(NC(=O)c2ccccc2)c(C#N)c2nc3ccccc3nc21 | inconclusive: 3.16 µM [inhibitor, full curve, poor fit] | – |
| COc1ccc(CCNC(=O)CSc2nnc(CNC(=O)c3ccccc3F)o2)cc1OC | inconclusive: 39.8 µM [inhibitor, full curve] | – |

Three structures out of the list, ordered by molar mass, falling:

| Compound | Potency | activity, negative = inhibition |
| --- | --- | --- |
| Cc1ccccc1-c1cc(C(=O)NCc2ccc3c(c2)OCO3)n(CC2CC(c3cccnc3)=NO2)n1 (configuration not stated) | inconclusive: 11.2 µM [inhibitor, single point] | – |
| COc1ccc(CCNC(=O)CSc2nnc(CNC(=O)c3ccccc3F)o2)cc1OC | inconclusive: 39.8 µM [inhibitor, full curve] | – |
| CC(=O)c1cccc(S(=O)(=O)NC(C)C2CC3CCC2C3)c1 (configuration not stated) | inconclusive: 15.8 µM [inhibitor, full curve, poor fit] | – |
